Source: patent US20050288333A1 (priority 2004, published 2005)
At least one compound was matched to its structure with a doubt left.

Amino acid sequences for entries named in this document (tags omitted). Residues count along the entry.
UniProt Q05941, 23-502: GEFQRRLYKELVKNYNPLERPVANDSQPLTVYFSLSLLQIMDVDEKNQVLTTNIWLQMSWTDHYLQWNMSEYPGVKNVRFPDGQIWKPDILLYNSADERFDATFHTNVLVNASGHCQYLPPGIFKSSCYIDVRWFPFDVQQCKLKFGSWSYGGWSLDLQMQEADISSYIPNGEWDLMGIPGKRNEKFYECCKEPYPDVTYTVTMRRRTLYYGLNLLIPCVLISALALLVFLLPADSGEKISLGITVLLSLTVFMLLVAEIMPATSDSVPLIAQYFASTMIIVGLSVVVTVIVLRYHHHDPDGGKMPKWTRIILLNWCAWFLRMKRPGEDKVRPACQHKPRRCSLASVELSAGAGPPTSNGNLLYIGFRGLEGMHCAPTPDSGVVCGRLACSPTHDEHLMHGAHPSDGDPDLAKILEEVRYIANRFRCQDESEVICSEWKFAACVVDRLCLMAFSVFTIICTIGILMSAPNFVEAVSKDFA
UniProt P09483, 31-630: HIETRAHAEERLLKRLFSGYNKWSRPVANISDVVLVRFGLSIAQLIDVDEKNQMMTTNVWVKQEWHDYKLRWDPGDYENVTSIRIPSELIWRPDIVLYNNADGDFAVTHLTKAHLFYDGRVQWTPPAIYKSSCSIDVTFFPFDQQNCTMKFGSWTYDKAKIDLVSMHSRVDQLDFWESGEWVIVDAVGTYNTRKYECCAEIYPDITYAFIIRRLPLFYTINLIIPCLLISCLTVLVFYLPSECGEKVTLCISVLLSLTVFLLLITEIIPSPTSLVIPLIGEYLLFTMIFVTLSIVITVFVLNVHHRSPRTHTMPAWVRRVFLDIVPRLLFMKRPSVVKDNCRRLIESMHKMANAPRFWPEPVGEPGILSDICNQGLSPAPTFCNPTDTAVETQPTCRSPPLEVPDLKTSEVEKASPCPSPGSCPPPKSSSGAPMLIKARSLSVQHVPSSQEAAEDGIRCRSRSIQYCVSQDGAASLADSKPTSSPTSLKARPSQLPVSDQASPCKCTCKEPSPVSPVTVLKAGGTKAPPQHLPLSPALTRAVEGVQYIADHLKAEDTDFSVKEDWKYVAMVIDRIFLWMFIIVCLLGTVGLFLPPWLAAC
UniProt P12390, 25-500: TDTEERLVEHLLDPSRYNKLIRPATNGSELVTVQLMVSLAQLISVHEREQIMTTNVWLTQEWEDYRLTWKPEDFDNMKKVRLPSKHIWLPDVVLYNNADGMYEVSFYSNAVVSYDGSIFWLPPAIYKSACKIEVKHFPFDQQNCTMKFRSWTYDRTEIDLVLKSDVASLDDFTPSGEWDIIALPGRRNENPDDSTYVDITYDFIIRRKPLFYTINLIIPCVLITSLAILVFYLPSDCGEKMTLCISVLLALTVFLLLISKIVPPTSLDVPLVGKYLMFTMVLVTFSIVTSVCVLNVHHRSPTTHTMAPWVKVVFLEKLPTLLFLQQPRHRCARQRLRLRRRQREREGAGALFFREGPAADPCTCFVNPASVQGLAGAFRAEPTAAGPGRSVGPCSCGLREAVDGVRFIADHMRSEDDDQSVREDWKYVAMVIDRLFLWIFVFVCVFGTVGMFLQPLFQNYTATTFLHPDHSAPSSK
UniProt P36544, 23-502: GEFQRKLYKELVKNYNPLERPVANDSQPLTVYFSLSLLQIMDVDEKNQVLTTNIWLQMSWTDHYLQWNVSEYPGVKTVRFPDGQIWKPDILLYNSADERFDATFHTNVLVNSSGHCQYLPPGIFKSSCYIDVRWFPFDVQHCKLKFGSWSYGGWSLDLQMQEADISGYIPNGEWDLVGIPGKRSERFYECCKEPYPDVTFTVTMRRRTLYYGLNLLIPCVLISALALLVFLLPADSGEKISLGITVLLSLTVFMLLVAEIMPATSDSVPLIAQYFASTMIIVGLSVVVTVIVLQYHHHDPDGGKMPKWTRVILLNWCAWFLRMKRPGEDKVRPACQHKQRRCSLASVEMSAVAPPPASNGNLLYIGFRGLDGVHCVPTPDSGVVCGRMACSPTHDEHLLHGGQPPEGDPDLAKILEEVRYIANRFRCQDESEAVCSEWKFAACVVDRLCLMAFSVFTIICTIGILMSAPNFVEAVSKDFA
UniProt P17787, 26-502: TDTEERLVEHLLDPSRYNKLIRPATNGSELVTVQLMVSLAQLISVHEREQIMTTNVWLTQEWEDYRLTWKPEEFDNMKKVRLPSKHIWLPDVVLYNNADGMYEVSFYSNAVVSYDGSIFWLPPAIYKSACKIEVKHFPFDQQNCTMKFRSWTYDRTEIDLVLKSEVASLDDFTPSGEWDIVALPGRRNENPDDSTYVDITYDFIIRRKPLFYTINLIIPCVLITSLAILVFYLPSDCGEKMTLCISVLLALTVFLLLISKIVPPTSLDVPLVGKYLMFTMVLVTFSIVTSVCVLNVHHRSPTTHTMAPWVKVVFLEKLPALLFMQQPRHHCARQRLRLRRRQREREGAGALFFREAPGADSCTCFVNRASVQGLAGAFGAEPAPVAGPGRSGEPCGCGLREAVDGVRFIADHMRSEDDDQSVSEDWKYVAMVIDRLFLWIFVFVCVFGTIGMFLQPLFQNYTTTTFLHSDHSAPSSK
UniProt P43681, 29-627 limits assumed: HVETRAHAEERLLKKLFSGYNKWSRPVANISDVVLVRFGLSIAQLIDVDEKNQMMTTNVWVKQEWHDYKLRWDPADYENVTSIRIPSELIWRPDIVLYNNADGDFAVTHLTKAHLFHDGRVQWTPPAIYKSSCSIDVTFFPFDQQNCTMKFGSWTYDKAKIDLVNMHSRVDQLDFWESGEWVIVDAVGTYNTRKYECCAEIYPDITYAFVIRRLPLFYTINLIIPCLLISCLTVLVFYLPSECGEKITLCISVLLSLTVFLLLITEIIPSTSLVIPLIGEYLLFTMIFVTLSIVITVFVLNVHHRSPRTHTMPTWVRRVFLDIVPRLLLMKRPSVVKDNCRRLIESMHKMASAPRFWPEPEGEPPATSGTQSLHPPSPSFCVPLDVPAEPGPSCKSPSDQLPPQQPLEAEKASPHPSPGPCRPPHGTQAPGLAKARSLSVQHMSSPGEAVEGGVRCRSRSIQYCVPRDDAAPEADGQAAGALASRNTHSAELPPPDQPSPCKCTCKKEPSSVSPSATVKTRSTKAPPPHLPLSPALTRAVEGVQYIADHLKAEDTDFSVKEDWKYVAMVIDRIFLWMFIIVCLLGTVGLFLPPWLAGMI

Assays:
rat α7 receptor = rat α7 receptor (Rattus norvegicus, UniProt Q05941); conditions: fraction of full agonist response; cited from earlier work
rat α4β2 receptor = rat α4β2 receptor (Rattus norvegicus, UniProt P09483+P12390); conditions: previously reported (de Fiebre et al. 1995); cited from earlier work
human α7 = human α7 (Homo sapiens, UniProt P36544); conditions: Meyer et al. 1998; cited from earlier work
human α4β2 receptors = target: T1, human α4β2 receptors (Homo sapiens, UniProt P17787+P43681); assay: Agonist and inhibitory effects on receptors expressed in oocytes; assay type: cell-based; conditions: measured after 5 min of washing the oocytes with saline
T1 construct: expressed in transfected cells; host or cells: Xenopus laevis oocytes

COc1ccc(/C=C2\CCCN=C2c2cccnc2)c(OC)c1 [GTS-21, 3-(2,4-Dimethoxybenzylidene)anabaseine]
efficacy (maximum effect) for activating the rat α7 receptor relative to acetylcholine and anabaseine (rat α7 receptor): approximately half
agonistic action, % of the maximal ACh current (rat α4β2 receptor): < 3%
efficacy at the human α7 relative to acetylcholine maximal response (human α7): approximately half
residual inhibition of human α4β2 receptors (human α4β2 receptors): some residual inhibition
